Data reported in patent EP0707065A2, “Parietaria allergens” (UNIVERSITY OF MANITOBA, priority 1994, dated 1996).
At least one peptide structure holds a part that was inferred or is arguable (an end, a ring closure or a residue). No end group written: not given here.

Legend:
[1] = test system: spleen and lymph node cells; experiment: Cytokine production (sandwich ELISA) by cells of mice immunized with Parietaria extract, cultured with peptide; format: cell-based; conditions: 200 µg/ml of peptide, 24 hours culture; BDF1 mice immunized with Parietaria extract in alum; Table 4
human IgE antibodies = experiment: Dot-blot of peptides with pooled sera of Parietaria allergic patients, labelled anti-human IgE, autoradiography; format: binding; conditions: ten microgram peptide dot-blotted onto nitrocellulose; pool of sera of Parietaria allergic patients

FNKKFQSGKPPNEQL [#23]
cytokine production (IL-2, IL-4 and IFN-γ) [1]: stimulated primarily the production of IFN-γ

YPLEKVTVEGNFYHK [#27]
reaction with the human IgE antibodies (human IgE antibodies): reacted with the human IgE antibodies
